Measurements reported in PubChem BioAssay AID1508597 (Cure First, 2020).

Assay: 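Survival screen with siRNA in ovarian cancer cells derived from patients, with or without rucaparib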 (primary screen)
Cells: human ovarian carcinoma lines grown from tumours: OCI-P5x (papillary serous) and OCI-C5x (clear cell)
Reagents: siRNA pool against human genes, 1.25 pmol siRNA per well
Timing: 72 h or 96 h, depending on the cell culture
Conditions: rucaparib 20 µM (about IC30) or vehicle, present until read-out
Rucaparib or vehicle: Rucaparib
Cell line: OCI-C5x (clear cell)
Measurement: 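ATP luminescence measured at 72 or 96 h according to the culture, then normalised and expressed as percent viability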
Reading the numbers: viability, normalised: higher = more viable cells remaining
Hit rule: 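Active when normalised viability falls below 80 percent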
Meaning of the calls: active = viability under 80%; inactive = viability 80% or more
This is a random part of the about 2,100 reagents, in one setting of the screen. 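Calls flag viability under 80% in either arm, not effects specific to rucaparib; the reference for percent is not stated.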 Not stated in the record: the 100% reference.

target	technical replicate	viability, normalised (%)	call
PRDM7	1	48.2	active
PRDM7	2	34.1	active
PRDM7	3	41.6	active
FES	1	27	active
FES	2	29.7	active
FES	3	37.5	active
DLG2	1	63.7	active
DLG2	2	64.7	active
DLG2	3	71.1	active
RPL11	1	39.9	active
RPL11	2	46.1	active
RPL11	3	38.9	active
RNASEL	1	49.4	active
RNASEL	2	32.3	active
RNASEL	3	70.5	active
PRPS1L1	1	44.3	active
PRPS1L1	2	51.4	active
PRPS1L1	3	50.3	active
MAPKAPK3	1	35.7	active
MAPKAPK3	2	39.1	active
MAPKAPK3	3	52.7	active
MED6	1	41.4	active
MED6	2	33	active
MED6	3	35	active
DDX51	1	43.6	active
DDX51	2	40.3	active
DDX51	3	49	active
MAPK4	1	65.1	active
MAPK4	2	86.9	inactive
MAPK4	3	77.6	active
TANK	1	58.7	active
TANK	2	66.8	active
TANK	3	65.5	active
RLF	1	43.1	active
RLF	2	52	active
RLF	3	43.4	active
KIF4A	1	49.2	active
KIF4A	2	62.7	active
KIF4A	3	59.7	active
